# According to PubChem BioAssay AID590 (National Center for Advancing Translational Sciences (NCATS), 2007):
# Screen size: about 59,000 compounds; about 6,500 (11%) were called active. Inconclusive results, whose numbers are uncertain, are shown with a selection of clear calls. Rule as the data show it: active = max dye-equivalent concentration above about 10 nM; inconclusive = mostly about 1.1 nM to 9.6 nM; inactive = weaker than that.
# Assay: qHTS Assay for Spectroscopic Profiling in A350 Spectral Region
# Details: Compound autofluorescence, 340/450 nm, Alexa 350 dye-equivalents; hits give high values
row,SMILES,max dye-equivalent concentration
1,CCc1nnc(NC(=O)C2CCCN(c3nc4ccccc4s3)C2)s1 (stereo not drawn),inactive
2,c1c2c(cc3sc(N4CCOCC4)nc13)OCO2,inactive
3,N#CC1=C(N)NC(SCC(=O)O)=C(C#N)C12CCCC2,inconclusive: 4.9 nM
4,CCOC(=O)NC(Nc1sc2c(c1C(=O)OC)CCN(C)C2)(C(F)(F)F)C(F)(F)F,active: 36 nM
5,Cc1oc(C(=O)O)cc1CSc1nnc(-c2ccccc2)n1C,inconclusive: 1.7 nM
6,COc1ccc2c(c1)nc(N)n2Cc1ccccc1,inconclusive: 1.2 nM
7,CCOC(=O)N1CCC(NC(=O)c2cnn3c(C(F)(F)F)cc(-c4cccc(OC)c4)nc23)CC1,active: 200 nM
8,N#CCCN(CCC#N)c1nncs1,inactive
9,O=C(Cc1ccc(F)cc1)N(c1ccc(F)cc1)C1C=CS(=O)(=O)C1 (stereo not drawn),inactive
10,CCOc1ccc(-c2nnc3ccc(SCc4ccc(C(=O)OC)o4)nn23)cc1,inconclusive: 4.2 nM
11,COc1cc(OC)c(C2N(c3cc(C)on3)C(=O)C3CCCN32)cc1OC (stereo not drawn),inconclusive: 1.9 nM
12,COc1cc(-c2nc(Cc3c(F)cccc3Cl)no2)cc(OC)c1OC,inconclusive: 2.1 nM
13,COC(=O)C1=C(C)NC(C)=C(C(=O)OC)C1c1ccccc1OCc1c(C)no[n+]1[O-],active: 88 nM
14,O=C(Cn1nnc(-c2ccccc2)n1)c1ccccc1,inconclusive: 1.4 nM
15,CCOC(=O)c1sc2nc(CC(=O)OC)nc(NCCN3CCOCC3)c2c1C,inconclusive: 2.2 nM
16,CCOc1cc(C2C3=C(CCCC3=O)NC3=C2C(=O)CCC3)cc(Cl)c1O,inconclusive: 7.7 nM
17,Cc1cc(NC(=O)c2cc(-c3ccccn3)nc3ccccc23)no1,inactive
18,C[C@@H](N)[C@@H](C)Cc1ccccc1,inactive
19,Cn1c(=O)n(CCN2CCOCC2)c(=O)c2c1nc1n2CCN1c1ccccc1,inconclusive: 1.1 nM
20,O=C1CCCc2c1nc(-c1ccco1)n2O,active: 16 nM
21,CCOC(=O)c1[nH]c(C)c(C(=O)N(C)Cc2ccccc2)c1C,inconclusive: 1.4 nM
22,CC(=O)c1cccc(NC(=O)NC(C)c2ccncc2)c1 (stereo not drawn),inconclusive: 1.5 nM
23,CCN(CC)CCNC(=O)CS(=O)Cc1nc(-c2ccccc2Cl)oc1C (stereo not drawn),inconclusive: 2.5 nM
24,O=C(Nc1cccc(C(F)(F)F)c1)c1cccnc1N1CCCC1,inconclusive: 3 nM

row,SMILES,max dye-equivalent concentration
1,CC(=O)n1cc(C2C(=O)CCCC2=O)c2ccccc21,inconclusive: 9.9 nM
2,CC(C)C(c1nnnn1Cc1ccc2c(c1)OCO2)N1CCN(c2ccccc2)CC1 (stereo not drawn),inconclusive: 1.4 nM
3,O=C(CCCC(=O)N(CC(=O)NC1CCCC1)Cc1ccccc1Cl)Nc1ccccn1,inconclusive: 1.2 nM
4,COc1ccc(C(O)P(=O)(O)CCc2ccccc2)cc1 (stereo not drawn),inconclusive: 1.1 nM
5,CC(=O)N[C@@H]1CONC1=O,inactive
6,CC(C)CN1C(=O)NC(NC(=O)c2ccco2)(C(F)(F)F)C1=O (stereo not drawn),inconclusive: 1.5 nM
7,CN1CCCN([C@@H](c2ccccc2)c2ccc(Cl)cc2)CC1,inconclusive: 2.1 nM
8,Cc1nc2cnc(N3CCN(C)CC3)nc2n(C[C@H]2CCCO2)c1=O,active: 59 nM
9,Cc1nc2ccccn2c1-c1nnco1,inconclusive: 6.2 nM
10,O=C(CCNc1n[nH]c(=O)[nH]c1=O)N1CCOCC1,inactive
11,O=C(NC1CCCCCC1)C1CCN(c2nc3ccccc3o2)CC1,active: 15 nM
12,CCn1c2ccccc2c2nnc(SCC(=O)Nc3ccc4c(c3)OCO4)nc21,inconclusive: 2 nM
13,COc1ccc(CNc2ncnc3ccc(-c4cccc(NS(C)(=O)=O)c4)cc23)c(OC)c1,inactive
14,CN(Cc1nnc(SCC(=O)NCCc2ccccc2)n1C)S(=O)(=O)c1ccccc1,inconclusive: 2.1 nM
15,COc1ccc(OC)c(C(=O)COC(=O)c2cc(C)oc2C)c1,inconclusive: 6 nM
16,Cc1n[nH]c(C)c1CCc1nc2c3ccccc3nc(SCC(N)=O)n2n1,inconclusive: 6.4 nM
17,COc1ccc(-n2c(=O)[nH]cc(C(=O)N3CCc4ccccc43)c2=O)cc1,active: 12 nM
18,O=C(NCC1COc2ccccc2O1)C1C2C=CC3(CN(Cc4ccccc4Cl)C(=O)C13)O2 (stereo not drawn),inconclusive: 2.1 nM
19,CS(=O)(=O)c1cccc(C(=O)NCc2ccccc2)c1,inconclusive: 1.9 nM
20,Cc1ccccc1Nc1nnc(SCC(=O)NC(=O)NCc2ccco2)s1,inactive
21,O=C1CCCC/C1=C\Nc1ccc(Cl)cn1,inconclusive: 3.6 nM
22,Cn1c(=O)c2nc(-c3ccccc3)oc2c2ccccc21,inconclusive: 5.3 nM
23,Clc1cccc(Cl)c1Cn1cnc2c(N3CCCCCC3)ncnc21,inconclusive: 2.4 nM
24,COc1ccc(NC(=O)c2cnc(C)cn2)c2ncccc12,inactive

row,SMILES,max dye-equivalent concentration
1,COc1cc(OC)c(C2C3=C(CCCC3=O)Nc3nc4ccccc4n32)cc1OC (stereo not drawn),inconclusive: 8.9 nM
2,Cc1ccc2[nH]c(=O)c(CN(Cc3ccccc3Cl)C(=O)N3CCOCC3)cc2c1,inconclusive: 5.9 nM
3,O=C(O)C(O)c1ccco1 (stereo not drawn),inconclusive: 2 nM
4,Cc1ccc(NC(=O)c2ccccc2O)cc1,active: 12 nM
5,Cc1ccc2nc3c(cc(C(=O)NCc4cccnc4)c(=N)n3C(C)C)c(=O)n2c1,active: 8000 nM
6,CCc1ccc2oc(=O)cc(CN3CCN(c4ccc(F)cc4)CC3)c2c1,inconclusive: 1.5 nM
7,COCCn1c(=O)c(-c2cccc(C#N)c2)nc2cnc(OC)nc21,inconclusive: 6 nM
8,COc1ccccc1Nc1nc(N)nc(CN2CCC(Cc3ccccc3)CC2)n1,inactive
9,CCn1c(SCC(=O)O)nnc1C1CCCCC1,inconclusive: 1.1 nM
10,CCOc1ccc2[nH]c(=O)c(C(c3nnnn3Cc3ccco3)N3CCCC(C)C3)cc2c1 (stereo not drawn),active: 130 nM
11,CCOc1ccc(C2=CS/C(=C(\C#N)c3nnc4n3CCCCC4)N2CC)cc1,inactive
12,CCn1ccc(=N)cc1,inconclusive: 4.8 nM
13,COc1ccc(-n2c(=O)c(-c3cn(C)c4ccccc34)nc3cncnc32)cc1,inactive
14,COCCOC(=O)C1=C(C)NC(=O)NC1c1cn(-c2ccccc2)nc1-c1cccs1 (stereo not drawn),inconclusive: 3.6 nM
15,COc1ccc(C(C)(C)C)cc1NC(=O)C1C2C=CC(C2)C1C(=O)O (stereo not drawn),inactive
16,Cc1nccc2[nH]c(=O)c(C(=O)NCCCN(C)C3CCCCC3)cc12,inconclusive: 2.7 nM
17,Clc1ccccc1-c1ccc2ncnc(NCc3cccnc3)c2c1,inactive
18,O=C(O)CCSc1nc2ccccc2c(=O)[nH]1,inconclusive: 1.1 nM
19,CCOc1ccccc1-n1c(SCC(=O)NC)nnc1-c1ccco1,inconclusive: 1.5 nM
20,O=c1c2ccccc2c(C=NCCCN2CCOCC2)c(O)n1Cc1ccccc1,active: 13 nM
21,COc1ccc(-c2ccc(-c3nnc(Cc4ccc(OC)c(OC)c4)o3)cc2)cc1,inconclusive: 6.5 nM
22,CCOc1ccc(CN2CCN(c3cc(C)nc4c5c(C)cc(C)nc5nn34)CC2)cc1,active: 610 nM
23,COc1ccc2c(c1)SC1=NCCS(=O)(=O)N12,inconclusive: 1.6 nM
24,COc1ccc(N2CCN(Cc3cc(=O)oc4c3ccc3ccccc34)CC2)cc1,inconclusive: 4.5 nM

row,SMILES,max dye-equivalent concentration
1,CC(C)(C)n1nnnc1C(c1cccs1)N1CCN(Cc2ccccc2)CC1 (stereo not drawn),inconclusive: 1.1 nM
2,COc1ccccc1N1CCN(c2nc(-c3ccccc3)cc(C(F)(F)F)n2)CC1,inactive
3,Cc1ccc(-c2ccc(CCC(=O)O)n2Cc2ccco2)cc1,inconclusive: 6.5 nM
4,O=C(O)CSSCC(=O)O,inactive
5,COc1cc2[nH]c(=O)n(CCCC(=O)N3CC=C(c4ccccc4)CC3)c(=O)c2cc1OC,active: 37 nM
6,COc1cc(OC)cc(C(C)=O)c1,inactive
7,Cn1c(=O)c(C(=O)Nc2ccccn2)c(O)c2ccccc21,inactive
8,CCOC(=O)N1CCC(NC(=O)CCc2c(C)nc3ncnn3c2C)CC1,inconclusive: 6.1 nM
9,COc1ccc(C2=NOC(C(=O)Nc3ccc(C)cc3)C2)cc1OC (stereo not drawn),inconclusive: 4.8 nM
10,CC1=C(C)C(=O)N(c2ccccn2)C1=O,inactive
11,CCOc1ccccc1-c1nc(-c2ccc(NC(=O)Cc3ccc(OC)cc3)cc2)no1,inactive
12,CCOC(=O)c1ccccc1NC(=O)c1cc(S(=O)(=O)N2CCOCC2)ccc1F,inactive
13,Cc1nc2c3c(-c4ccccc4)nc(N4CCOCC4)nc3nn2c(C)c1CCC(=O)O,active: 99 nM
14,Cc1oc(-c2ccccc2)[n+]([O-])c1C,inconclusive: 2.2 nM
15,COC(=O)c1c(C)[nH]c(C(=O)COC(=O)Cc2ccc3c(c2)OCCO3)c1C,inactive
16,COCCn1cc(C(=O)N2CCCC(C)C2)c2c3ccccc3n(C)c2c1=O (stereo not drawn),active: 700 nM
17,O=C(c1ccncc1)N1CCC[C@@]2(CCN(c3ccccn3)C2)C1,inactive
18,CCc1nc2ccccc2n(CC)c1=O,inconclusive: 9.1 nM
19,Cc1noc(C)c1C(=O)Nc1ccccc1-c1ccccc1,inconclusive: 1.2 nM
20,CCOc1ccc(-c2cc(C(=O)N3CCN(C)CC3)c3ccccc3n2)cc1,active: 510 nM
21,COc1cccc(C2C=C(c3ccc(OC)cc3OC)Nc3nnnn32)c1 (stereo not drawn),inconclusive: 2 nM

# Reformatted: results already given
row	SMILES	max dye-equivalent concentration
4	O=C(O)CSSCC(=O)O	inactive
5	COc1cc2[nH]c(=O)n(CCCC(=O)N3CC=C(c4ccccc4)CC3)c(=O)c2cc1OC	active: 37 nM
10	CC1=C(C)C(=O)N(c2ccccn2)C1=O	inactive
20	CCOc1ccc(-c2cc(C(=O)N3CCN(C)CC3)c3ccccc3n2)cc1	active: 510 nM

# Arranged by molar mass (low to high): four of the compounds above
row,SMILES,max dye-equivalent concentration
4,O=C(O)CSSCC(=O)O,inactive
19,Cc1noc(C)c1C(=O)Nc1ccccc1-c1ccccc1,inconclusive: 1.2 nM
3,Cc1ccc(-c2ccc(CCC(=O)O)n2Cc2ccco2)cc1,inconclusive: 6.5 nM
20,CCOc1ccc(-c2cc(C(=O)N3CCN(C)CC3)c3ccccc3n2)cc1,active: 510 nM
